Drawing on PMC3084784, this text covers binding for one substance.

The chains behind the UniProt entries cited, without tags or fusion partners. Residues count along the entry.
UniProt Q8N423, residues 24-220: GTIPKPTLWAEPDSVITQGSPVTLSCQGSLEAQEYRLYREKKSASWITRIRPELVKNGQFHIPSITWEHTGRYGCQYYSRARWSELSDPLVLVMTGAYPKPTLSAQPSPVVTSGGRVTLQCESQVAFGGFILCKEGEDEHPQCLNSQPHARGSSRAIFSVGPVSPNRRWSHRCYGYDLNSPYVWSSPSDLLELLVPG

No constants are given. Whether binding was seen depends on the method and setting.

The experiment addresses LILRB2 D1D2 (human) (UniProt Q8N423). As to the kind of experiment: SEC; size exclusion chromatography of the refolded proteins (Superdex 75 10/300 GL) with 12% SDS-PAGE of the main fractions; both purified. (In general: In gel filtration, larger molecules generally elute earlier.)

Turning to “LILRB2 D1D2 (from UniProt Q8N423 24-220) (domain or fragment)”, the binding result is listed as “no binding”.
